# Where a name gives a salt, the structure may show the parent alone. The whole screen tested about 3,300 compounds, of which about 95 (3%) showed an effect of 50% or more. The list shows a part of the results.
# System: HCoV-229E
# Parameters: species or system Huh-7; HTS, protection from HCoV-229E induced cell death, luminescent cell viability (CellCounting-Lite 2.0), inhibition rate
# Settings: 24 h post infection, 1 h compound pre-incubation; 10 µM; inhibitor
row,Compound,229E Inhibition rate [%]
1,CC(=O)O[C@H]1CC(=O)OC(C)(C)[C@@H]2CC(=O)[C@]3(C)[C@H](CC[C@@]4(C)[C@H](c5ccoc5)OC(=O)[C@H]5O[C@]543)[C@@]12C [Nomilin],15.5
2,"CCCCCCCC/C=C\CCCCCCCC(=O)OC[C@H](COP(=O)(O)O)OC(=O)CCCCCCC/C=C\CCCCCCCC [1,2-Dioleoyl-sn-glycero-3-phosphate, sodium salt]",6.8
3,CCN(CC)c1ccc2cc(-c3nc4ccccc4s3)c(=O)oc2c1 [Coumarin 6],9.6
4,C=C(C)[C@@H]1CC[C@]2(C(=O)O)CC[C@]3(C)[C@H](CC[C@@H]4[C@@]5(C)CCC(=O)C(C)(C)[C@@H]5CC[C@]43C)[C@@H]12 [Betulonic acid],3.5
5,N[C@H](CO)Cc1cnc[nH]1 [L-Histidinol (dihydrochloride)],0
6,CC(C)=CCC[C@](C)(O[C@@H]1O[C@H](CO)[C@@H](O)[C@H](O)[C@H]1O)[C@H]1CC[C@]2(C)[C@@H]1[C@H](O)C[C@@H]1[C@@]3(C)CC[C@H](O)C(C)(C)[C@@H]3[C@@H](O)C[C@]12C [Ginsenoside F1],20.9
7,Nc1ncnc2c1ncn2[C@@H]1O[C@H](CO)[C@@H](O)[C@H]1O [Adenosine],8.7
8,O=C1C[C@@H](c2ccc(O)cc2)Oc2cc(O)ccc21 [Liquiritigenin],20.8
9,CC1=C(CC[C@H](C)CO[C@@H]2O[C@H](CO)[C@@H](O)[C@H](O)[C@H]2O)O[C@H]2C[C@H]3[C@@H]4CC[C@@H]5C[C@@H](O[C@@H]6O[C@H](CO)[C@@H](O)[C@H](O)[C@H]6O[C@@H]6O[C@H](CO)[C@@H](O)[C@H](O)[C@H]6O)CC[C@]5(C)[C@H]4CC[C@]3(C)[C@@H]12 [Timosaponin C],28.7
10,C[n+]1cc2c3c(ccc2c2ccc4cc5c(cc4c21)OCO5)OCO3 [Sanguinarine (chloride)],6.4
11,O=C(O)c1ccccn1 [PCL 016],5.4
12,CC(=O)N[C@@H](CCCN)C(=O)O [N-Acetylornithine],0
13,C[C@H]1CC[C@@H]2N(C1)C[C@H]1[C@@H]3C[C@H]4[C@@H](CC(=O)[C@H]5C[C@@H](O[C@@H]6O[C@H](CO)[C@@H](O)[C@H](O)[C@H]6O)CC[C@@]54C)[C@@H]3CC[C@@H]1[C@]2(C)O [Edpetiline],11.7
14,C[C@@H]1O[C@@H](Oc2cc(O)c3c(c2)O[C@H](c2ccc(O)c(O)c2)[C@@H](O)C3=O)[C@H](O)[C@H](O)[C@H]1O [Taxifolin 7-O-rhamnoside],9.6
15,CCCCCCCCCCCCCCCC(=O)NCc1ccccc1 [N-Benzylpalmitamide],13.8
16,COc1c(/C=C/C(=O)c2ccc(O)c(O)c2)ccc(O)c1O [Tetrahydroxymethoxychalcone],20.6
17,COc1cc(-c2oc3cc(O)cc(O)c3c(=O)c2O[C@@H]2O[C@H](CO[C@@H]3O[C@@H](C)[C@H](O)[C@@H](O)[C@H]3O)[C@@H](O)[C@H](O)[C@H]2O)ccc1O [Narcissin],14.4
18,CCCOC(=O)c1cc(O)c(O)c(O)c1 [Propyl gallate],8.9
19,N[C@@H]1CONC1=O [D-Cycloserine],10.6

# Single values from above:
# Entry for `N[C@@H]1CONC1=O` [D-Cycloserine] under 229E Inhibition rate [%]: 10.6
# Entry for `CC(=O)O[C@H]1CC(=O)OC(C)(C)[C@@H]2CC(=O)[C@]3(C)[C@H](CC[C@@]4(C)[C@H](c5ccoc5)OC(=O)[C@H]5O[C@]543)[C@@]12C` [Nomilin] under 229E Inhibition rate [%]: 15.5

# (cont.)

row,Compound,229E Inhibition rate [%]
1,C=C1C[C@@]2(O)O[C@@]3(C[C@H]2C(C)C)[C@@H](C)CC[C@@H]13 [Curcumol],11.7
2,CC(C)CC(=O)NCC(=O)O [N-Isovaleroylglycine],9.6
3,COc1c2c(cc3c1-c1c(cc4c(c1OC)OCO4)C[C@H](C)[C@H](C)C3)OCO2 [Schisandrin C],52.7
4,O=C(O)/C=C/c1ccc(O)c(O)c1 [Caffeic acid],23.5
5,CC(C)(COP(=O)(O)OP(=O)(O)OC[C@H]1O[C@@H](n2cnc3c(N)ncnc32)[C@H](O)[C@@H]1OP(=O)(O)O)[C@@H](O)C(=O)NCCC(=O)NCCS [Coenzyme A],10.1
6,COc1cc([C@H]2OC[C@H]3[C@@H]2CO[C@@H]3c2ccc(O[C@@H]3O[C@H](CO)[C@@H](O)[C@H](O)[C@H]3O)c(OC)c2)ccc1O[C@@H]1O[C@H](CO)[C@@H](O)[C@H](O)[C@H]1O [Pinoresinol Diglucoside],23.6
7,O=C1N[C@@H](Cc2ccccc2)C(=O)N2CCC[C@@H]12 [Cyclo(L-Phe-L-Pro)],11.1
8,C[C@@H]1O[C@@H](O)[C@H](O)[C@H](O)[C@H]1O [α-L-Rhamnose monohydrate],15.5
9,Nc1ncc[nH]1 [2-Aminoimidazole],21.7
10,Cc1ncc(CO)c(C(=O)O)c1O [4-Pyridoxic acid],22.7
11,CC(C)(O)C(=O)O [2-Hydroxyisobutyric acid],11.8
12,C/C=C(/C)C(=O)O[C@H]1Cc2cc3ccc(=O)oc3cc2OC1(C)C [Decursinol angelate],18.2
13,O=C(O)c1cccc(Oc2ccccc2)c1 [3-Phenoxybenzoic acid],9.2
14,CCCCCCCC/C=C\CCCCCCCC(=O)NCC(=O)O [N-Oleoyl glycine],9
15,"Cc1cc(=O)oc2cc(O)cc(O)c12 [5,7-Dihydroxy-4-methylcoumarin]",8.3
16,O=c1cc(-c2ccccc2)oc2cc(O)ccc12 [7-Hydroxyflavone],36.4
17,OCC(O)[C@@H](O)[C@H](O)[C@H](O)CO[C@H]1O[C@H](CO)[C@@H](O)[C@H](O)[C@H]1O (stereo partly shown) [Isomalt],20.9
18,C[C@@H]1CC[C@@]2(OC1)O[C@H]1C[C@H]3[C@@H]4CC[C@H]5C[C@@H](O[C@@H]6O[C@H](CO)[C@H](O[C@@H]7O[C@H](CO)[C@@H](O)[C@H](O[C@@H]8OC[C@@H](O)[C@H](O)[C@H]8O)[C@H]7O[C@@H]7O[C@H](CO)[C@H](O)[C@H](O)[C@H]7O)[C@H](O)[C@H]6O)CC[C@]5(C)[C@H]4CC(=O)[C@]3(C)[C@H]1[C@@H]2C [Terrestrosin D],6.7
